Measured values published in article doi:10.1101/2025.10.14.682307.

Chains of the proteins cited; added tags and fusions are not shown.
UniProt Q15022: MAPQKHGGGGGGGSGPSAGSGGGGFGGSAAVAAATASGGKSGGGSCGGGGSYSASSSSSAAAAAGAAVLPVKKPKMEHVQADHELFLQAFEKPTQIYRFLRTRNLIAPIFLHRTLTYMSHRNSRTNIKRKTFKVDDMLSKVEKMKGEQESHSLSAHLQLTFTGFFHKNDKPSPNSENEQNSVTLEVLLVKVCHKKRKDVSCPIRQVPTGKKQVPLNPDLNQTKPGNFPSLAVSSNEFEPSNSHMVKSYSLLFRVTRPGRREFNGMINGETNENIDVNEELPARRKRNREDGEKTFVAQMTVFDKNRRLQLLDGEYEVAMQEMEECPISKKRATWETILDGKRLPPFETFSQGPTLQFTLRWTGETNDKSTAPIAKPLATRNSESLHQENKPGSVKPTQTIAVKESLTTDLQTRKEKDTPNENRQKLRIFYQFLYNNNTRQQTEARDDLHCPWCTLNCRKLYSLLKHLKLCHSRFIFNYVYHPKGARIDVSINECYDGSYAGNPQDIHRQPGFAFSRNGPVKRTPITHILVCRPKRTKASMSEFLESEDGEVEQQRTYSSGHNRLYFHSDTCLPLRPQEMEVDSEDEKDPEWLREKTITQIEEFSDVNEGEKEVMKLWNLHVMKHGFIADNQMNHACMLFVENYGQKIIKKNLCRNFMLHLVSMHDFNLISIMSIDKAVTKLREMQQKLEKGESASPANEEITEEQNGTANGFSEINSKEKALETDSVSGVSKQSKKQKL
UniProt Q9Y483: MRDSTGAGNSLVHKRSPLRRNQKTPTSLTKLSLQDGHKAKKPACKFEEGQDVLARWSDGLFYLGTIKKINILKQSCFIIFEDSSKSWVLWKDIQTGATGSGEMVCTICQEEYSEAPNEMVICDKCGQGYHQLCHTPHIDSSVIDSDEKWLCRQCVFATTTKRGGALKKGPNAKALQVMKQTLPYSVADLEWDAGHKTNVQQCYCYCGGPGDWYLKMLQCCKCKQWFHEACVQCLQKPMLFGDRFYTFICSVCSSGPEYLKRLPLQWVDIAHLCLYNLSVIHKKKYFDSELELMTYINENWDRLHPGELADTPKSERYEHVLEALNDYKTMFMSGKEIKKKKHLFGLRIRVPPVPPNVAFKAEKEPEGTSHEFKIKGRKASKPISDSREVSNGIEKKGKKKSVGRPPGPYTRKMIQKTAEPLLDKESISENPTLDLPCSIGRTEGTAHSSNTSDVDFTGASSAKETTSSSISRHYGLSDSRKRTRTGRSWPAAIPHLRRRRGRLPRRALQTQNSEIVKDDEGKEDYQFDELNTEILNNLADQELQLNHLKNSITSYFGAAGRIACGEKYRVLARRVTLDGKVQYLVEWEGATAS

Molecular target: SUZ12 (human (endogenous in WSU-DLCL2)) (UniProt Q15022)
Assay: affinity purification with mass spectrometry

binding: binds
Substance: MTF2 (from UniProt Q9Y483 1-593)

These are yes or no findings as the source states them, for the method shown. Binding seen in cells or lysates may run through a third protein. These calls come from enrichment with a bait or labelling near it, and not all partners need be listed.
